Measured values reported in US20190275169A1, “TARGETED IMMUNOSUPPRESSION FOR OPTOGENETIC INTERVENTION” (Circuit Therapeutics, Inc., priority 2018, published 2019).
At least one structure is not confirmed: it was looked up by name or label, or the drawing left a doubt.

Experiments:
[1] = test system: ChR2 light responsiveness; test: Rapamycin exposure-time experiment, percentage of light responders versus weeks after injection of genetic material (FIG. 3); type: in vivo, mouse
[2] = test system: ChR2 light responsive opsin protein in spinal cord motor neurons of the rats; test: ChR2 / motor neuron model, loss of light responsiveness (FIG. 5); type: in vivo; details: medium dose of rapamycin, at ten weeks
[3] = test system: iC++ transgene expression, neuropathic pain model in rats; test: Intraganglionic administration of iC++ in the neuropathic pain model, daily rapamycin; type: in vivo

Compound: CO[C@H]1C[C@@H]2CC[C@@H](C)[C@@](O)(O2)C(=O)C(=O)N2CCCC[C@H]2C(=O)O[C@H]([C@H](C)C[C@@H]2CC[C@@H](O)[C@H](OC)C2)CC(=O)[C@H](C)/C=C(\C)[C@@H](O)[C@@H](OC)C(=O)[C@H](C)C[C@H](C)/C=C/C=C/C=C/1C [rapamycin, Rapamycin]
- effect on drop-off of light responsiveness ([1]; chronic rapamycin (continued the entire time after genetic material injection)): preventing the drop-off on a longer term basis
- time at which light responsiveness is dropping off ([1]; rapamycin for 1 week): about seven
- effect on drop-off of light responsiveness ([1]; rapamycin for 2 weeks): push the drop-off of light responsiveness out by a couple of weeks
- effect on drop-off of light responsiveness ([1]; rapamycin for 4 weeks): push the drop-off of light responsiveness out by a couple of weeks
- time at which light responsiveness is dropping off ([1]; rapamycin for 3 days starting at the date of genetic material injection): about seven
- light responsiveness [2]: still have light responsiveness
- iC++ expression [3]: increased iC++ expression
- inflammation [3]: reduced inflammation
